{"source": "patent US20080132544A1", "about": "“Peroxisome Proliferator-Activated Receptor Ligand” (KANEKA CORPORATION, priority 2004, published 2008)", "origin": "cited, not measured here", "system": "patients with type II diabetes mellitus", "conditions": "Non-Patent Documents 5 and 6; cited from earlier work", "note": "At least one compound was matched to its structure with a doubt left."}
{"molecule": "Cc1c(C)c2c(c(C)c1O)CCC(C)(COc1ccc(CC3SC(=O)NC3=O)cc1)O2", "note": "(stereo not shown) [Troglitazone]", "values": [{"measurement": "effect on visceral fat", "value": "reduces visceral fat"}]}
